Data as given in PubChem BioAssay AID652243 (Drosophila RNAi Screening Center, 2013)

- Aim: 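Knock-downs that decrease or increase androgen receptor reporter signal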 (primary screen)
- Cells: Drosophila S2R+ cells
- Reagent: long dsRNA against Drosophila genes
- Duration: 72 h (48 h, then 24 h hormone)
- Challenge: synthetic androgen R1881 at 10 nM for 24 h
- Detection: 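Per-well raw luminescence of the androgen-driven firefly reporter and of the Renilla control, two replicates each, without normalisation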
- Reading the numbers: firefly reporter light: higher = more light from androgen-responsive reporter; Renilla control light: higher = more constitutive control signal (cell number, transfection)
- Rule for the call: 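Across duplicate plates, a knock-down whose log firefly/Renilla ratio shifted a set fold down or up from the GFP/LacZ control mean was a hit; the downward cut appears as both 1.5 and 3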
- Meaning of the calls: active = hit: reporter lowered or raised; inactive = no hit
The deposit covers about 24,000 reagents; below is a random part of those with a known target gene and a result. In the full data, 246 (1%) were called active. 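Plates not normalised; calls are printed but the firefly/Renilla ratio behind them is not deposited; fold cut for lowering reported inconsistently.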 Raw values are not corrected between plates. No sequences are given here. Not given: the amount of reagent.

target gene | dsRNA | firefly reporter light, replicate 1 | firefly reporter light, replicate 2 | Renilla control light, replicate 1 | Renilla control light, replicate 2 | activity call
CG12402 | DRSC14508 | 1.44e5 | 1.27e5 | 1.98e6 | 2.32e6 | inactive
CG12402 | DRSC26872 | 3.40e5 | 4.21e5 | 8.62e5 | 8.65e5 | inactive
Ppn | DRSC15328 | 2.13e5 | 1.37e5 | 2.44e6 | 2.85e6 | inactive
Ppn | DRSC27718 | 4.15e5 | 4.19e5 | 6.52e5 | 6.56e5 | inactive
Pym | DRSC23017 | 7.19e5 | 9.06e5 | 1.38e6 | 2.02e6 | inactive
CG10730 | DRSC02102 | 81761 | 89291 | 1.07e6 | 1.34e6 | inactive
CG10730 | DRSC24841 | 8.48e5 | 8.86e5 | 1.10e6 | 1.14e6 | inactive
NdufV3 | DRSC19423 | 4.59e5 | 3.89e5 | 3.51e6 | 3.02e6 | inactive
NdufV3 | DRSC27236 | 2.84e5 | 2.37e5 | 6.60e5 | 8.13e5 | inactive
CG12307 | DRSC02159 | 1.99e5 | 2.04e5 | 1.19e6 | 1.08e6 | inactive
CG3581 | DRSC15499 | 2.16e5 | 2.27e5 | 2.67e6 | 3.32e6 | inactive
AOX2 | DRSC15338 | 1.09e5 | 1.24e5 | 1.58e6 | 1.82e6 | inactive
CG13016 | DRSC06271 | 51663 | 72111 | 5.36e5 | 5.36e5 | inactive
CG5731 | DRSC02883 | 1.65e5 | 2.47e5 | 1.02e6 | 1.09e6 | inactive
CG5731 | DRSC25969 | 3.60e5 | 4.61e5 | 8.70e5 | 7.90e5 | inactive
CG30050 | DRSC05342 | 1.04e5 | 1.58e5 | 3.83e5 | 4.07e5 | inactive
Ctr1A | DRSC18336 | 3.66e5 | 4.08e5 | 2.20e6 | 2.01e6 | inactive
qsm | DRSC05896 | 3.11e5 | 3.33e5 | 6.26e5 | 3.92e5 | inactive
qsm | DRSC06393 | 61238 | 84516 | 7.97e5 | 1.17e6 | inactive
qsm | DRSC25212 | 5.22e5 | 5.23e5 | 3.86e5 | 4.92e5 | inactive
CG3598 | DRSC18471 | 3.88e5 | 3.85e5 | 3.33e6 | 3.34e6 | inactive
CG3598 | DRSC26825 | 2.03e5 | 3.13e5 | 4.64e5 | 4.40e5 | inactive
CG4627 | DRSC06873 | 2.78e5 | 2.65e5 | 1.39e6 | 1.63e6 | inactive
CG2901 | DRSC18239 | 3.10e5 | 3.64e5 | 3.36e6 | 2.36e6 | inactive
CG2116 | DRSC18206 | 65258 | 34818 | 5.75e5 | 4.17e5 | inactive
CG2116 | DRSC24617 | 7.29e5 | 9.27e5 | 5.38e5 | 7.95e5 | inactive
smid | DRSC11398 | 2.50e5 | 2.28e5 | 3.23e6 | 3.42e6 | inactive
smid | DRSC28019 | 1.12e6 | 1.01e6 | 1.83e6 | 1.61e6 | inactive
hbs | DRSC07627 | 1.34e5 | 1.27e5 | 3.57e6 | 3.57e6 | inactive
CG15578 | DRSC18066 | 3.35e5 | 3.66e5 | 2.70e6 | 2.71e6 | inactive
Ack | DRSC08135 | 1.13e5 | 97321 | 7.15e5 | 1.09e6 | inactive
Ack | DRSC28013 | 5.50e5 | 4.24e5 | 1.27e6 | 1.07e6 | inactive
Ack | DRSC37045 | – | – | – | – | active
ssp3 | DRSC02669 | 1.53e5 | 1.30e5 | 1.28e6 | 1.21e6 | inactive
ssp3 | DRSC02670 | 1.73e5 | 1.75e5 | 1.74e6 | 2.01e6 | inactive
ssp3 | DRSC27298 | 7.34e5 | 8.00e5 | 8.28e5 | 7.66e5 | inactive
mRpL41 | DRSC06257 | 60616 | 90190 | 8.69e5 | 8.69e5 | inactive
mRpL41 | DRSC29395 | 3.97e5 | 4.86e5 | 1.62e6 | 1.62e6 | inactive
mRpL41 | DRSC39029 | 6.91e5 | 7.77e5 | 2.08e6 | 1.83e6 | inactive
ph-d | DRSC23191 | 4.65e5 | 5.52e5 | 1.47e6 | 1.60e6 | inactive
ph-d | DRSC29736 | 4.08e5 | 3.57e5 | 8.01e5 | 1.27e6 | inactive
ttv | DRSC07709 | 4.96e5 | 8.88e5 | 2.63e6 | 2.21e6 | inactive
ttv | DRSC26088 | 3.68e5 | 3.88e5 | 6.84e5 | 6.48e5 | inactive
CG12147 | DRSC12192 | 1.58e5 | 1.35e5 | 2.71e6 | 2.52e6 | inactive
CG12147 | DRSC30029 | 3.88e5 | 3.80e5 | 7.71e5 | 1.06e6 | inactive
scra | DRSC07679 | 8.15e5 | 6.62e5 | 1.78e6 | 2.27e6 | inactive
Cpr65Av | DRSC09727 | 2.52e5 | 2.29e5 | 3.29e6 | 2.93e6 | inactive
Cpr65Av | DRSC26499 | 2.36e5 | 1.58e5 | 5.66e5 | 4.06e5 | inactive
CG32801 | DRSC17964 | 4.35e5 | 3.24e5 | 4.39e6 | 3.39e6 | inactive
CG32801 | DRSC25614 | 8.85e5 | 9.26e5 | 1.29e6 | 1.58e6 | inactive
CG7512 | DRSC10863 | 1.18e5 | 1.33e5 | 1.30e6 | 1.32e6 | inactive
CG12589 | DRSC12215 | 68291 | 66362 | 1.98e6 | 1.45e6 | inactive
DCTN3-p24 | DRSC04592 | 6.94e5 | 5.97e5 | 6.58e5 | 9.11e5 | inactive
DCTN3-p24 | DRSC29156 | 4.62e5 | 4.73e5 | 1.24e6 | 1.17e6 | inactive
CG34460 | DRSC06974 | 83500 | 95112 | 9.81e5 | 9.81e5 | inactive
CG31800 | DRSC22525 | 8.17e5 | 7.44e5 | 2.53e6 | 2.15e6 | inactive
CG31800 | DRSC29916 | 5.41e5 | 3.44e5 | 1.39e6 | 1.45e6 | inactive
CG31221 | DRSC14335 | 1.67e5 | 2.66e5 | 2.66e6 | 3.57e6 | inactive
CG31221 | DRSC16217 | 2.69e5 | 1.91e5 | 2.91e6 | 2.67e6 | inactive
CG31221 | DRSC23748 | 5.88e5 | 4.80e5 | 4.78e5 | 4.25e5 | inactive

Entries above whose gene name begins with T or t:
target gene | dsRNA | firefly reporter light, replicate 1 | firefly reporter light, replicate 2 | Renilla control light, replicate 1 | Renilla control light, replicate 2 | activity call
ttv | DRSC07709 | 4.96e5 | 8.88e5 | 2.63e6 | 2.21e6 | inactive
ttv | DRSC26088 | 3.68e5 | 3.88e5 | 6.84e5 | 6.48e5 | inactive
